{"source": "patent US12642860B2", "about": "“Filamentous nanostructures and their use for treatment of pulmonary disease” (THE JOHNS HOPKINS UNIVERSITY, priority 2019, dated 2026)", "key": {"[1]": {"assay": "Loading capacity of drugs/dye within KPA filaments", "format": "physicochemical", "conditions": "encapsulated in KPA filaments, % by mass", "description": "FIGS. 20A-20C show (20A) the molecular structure of the lung disease-relevant drugs and fluorescent dye used in loading within the supramolecular filaments: paclitaxel (PTX, MW=853.92 g/mol), the anticancer drug; coumarin 6 (Cou6, MW=350.44 g/mol), the green fluorescent dye; and budesonide (BUD, MW=430.54 g/mol), the anti-inflammatory glucocorticoid used to treat symptoms of asthma and chronic obstructive pulmonary disease (top). (20B) The encapsulation process of hydrophobic drugs and dyes within supramolecular peptide amphiphile (PA)-based filaments, where dissolution of PA monomers and drug/dye in aqueous solutions results in their self-assembly with the drug/dye loaded within the hydrophobic core (left). The loading capacity of PTX, Cou6, and BUD based on mass (left axis, solid bars) and mole (right axis, checkered bars) percent within KPA supramolecular filaments (right). Data are given as mean±SD (n=5). (20C) Representative transmission electron microscopy (TEM) images of KPA filaments loaded with PTX (i, ii), Cou6 (iii, iv), and BUD (v, vi) before and after nebulization at 500 μM. Diameters are given as mean±SD (n=35).\nWith better insight into nebulization stability and the mechanism of supramolecular filament breakdown, we next sought to assess whether these systems can successfully carry drugs and dyes within aerosol droplets for potential inhalation-based therapies. […]"}, "[2]": {"assay": "Jet nebulizer release profile and output", "format": "physicochemical", "conditions": "within KPA filaments 1 mM", "description": "FIGS. 24A-24F are jet nebulizer release profiles of EPA, OPA, and KPA supramolecular filaments with starting formulation concentrations at (24A) 10 μM, (24B) 100 μM, and (24C) 1000 μM, showing a linear release pattern for each system over the course of a 10 min nebulization event (3 mL solution). Data given represent mean #SD (n=3); dashed lines represent line of best fit from linear regression analysis. (24D) The aerosol output rate (μg/min) of the supramolecular filaments from a jet nebulizer at different formulation concentrations, showing no statistically significant difference (ns) between filaments at the same concentration and output rate scales linearly with increasing concentration. Data are given as mean±SD (p>0.05 amongst filament systems, ****p<0.0001 amongst concentrations, two-way ANOVA, n=3). […]\nWe next monitored the release pattern of the supramolecular filaments in aerosol droplets from a jet nebulizer device alongside the output rate. First analyzing the blank EPA, OPA, and KPA filaments, 3 mL solutions of the filaments were loaded into a jet nebulizer at varying concentrations and the remaining concentration of PA molecules and fluid weight loss were monitored over the course of a 10 min nebulization event. FIGS. 24A-C represents the measured release profile of the three filament systems at 10 µM, 100 μM, and 1000 μM, respectively. […]"}}, "note": "At least one compound was matched to its structure with a doubt left.", "data": [{"smiles": "CCCC1O[C@@H]2C[C@H]3[C@@H]4CCC5=CC(=O)C=C[C@]5(C)[C@H]4[C@@H](O)C[C@]3(C)[C@]2(C(=O)CO)O1", "note": "(some centres unmarked) [BUD, budesonide]", "values": [{"measurement": "loading capacity by mass within KPA filaments", "setting": "[1]", "value": 4.4, "unit": "%"}, {"measurement": "aerosol output rate of encapsulated molecules", "setting": "[2]", "value": "comparable but higher than PTX"}]}]}
